Laboratory results reported in US20120213763A1 (COUNCIL OF SCIENTIFIC AND INDUSTRIAL RESEARCH, published 2012).
These are yes or no findings as the source states them, for the method shown. Some binding calls cover weakened binding; strength is not graded here.

Amino acid sequences for entries named in this document (tags omitted). Residues count along the entry.
UniProt P00747, residues 97-810: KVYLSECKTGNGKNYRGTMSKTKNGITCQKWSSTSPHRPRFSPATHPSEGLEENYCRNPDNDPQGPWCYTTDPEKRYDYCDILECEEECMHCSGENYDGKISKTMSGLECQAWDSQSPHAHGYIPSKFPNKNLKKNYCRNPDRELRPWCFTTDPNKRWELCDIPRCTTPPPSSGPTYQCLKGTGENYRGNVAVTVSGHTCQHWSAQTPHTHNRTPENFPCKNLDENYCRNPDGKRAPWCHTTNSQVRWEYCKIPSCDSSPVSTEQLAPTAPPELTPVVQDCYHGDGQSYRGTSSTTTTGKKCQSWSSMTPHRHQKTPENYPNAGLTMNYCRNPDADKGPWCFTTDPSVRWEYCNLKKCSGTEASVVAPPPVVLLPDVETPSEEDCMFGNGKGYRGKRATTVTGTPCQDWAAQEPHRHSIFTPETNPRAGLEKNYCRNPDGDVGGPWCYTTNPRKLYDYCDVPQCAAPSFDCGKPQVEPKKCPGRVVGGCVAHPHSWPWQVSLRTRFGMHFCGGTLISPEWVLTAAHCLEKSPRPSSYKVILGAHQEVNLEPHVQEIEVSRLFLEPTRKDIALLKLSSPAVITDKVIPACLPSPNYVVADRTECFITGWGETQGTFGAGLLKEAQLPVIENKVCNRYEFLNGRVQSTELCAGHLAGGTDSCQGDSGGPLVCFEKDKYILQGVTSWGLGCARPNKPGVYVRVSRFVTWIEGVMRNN

Biological target: human plasmin (human) (UniProt P00747)
Experiment: preformed equimolar complex with plasmin, used as activator in the HPG activation assay

native streptokinase nSK (1-414) ATCC 12449 (SEQ ID NO 1) (from UniProt P00779 27-440)
binding: binds
